In the assay the test system is L1210 leukemia ip in BDF1 mice, survival T/C. Put plainly: NCI In Vivo Anticancer Drug Screen. Data for tumor model L1210 Leukemia (intraperitoneal) in B6D2F1 (BDF1) mice. The settings on record: T/C endpoint: mean survival time, higher T/C = longer survival.
Setting [1] is: dose: 200.0 mg/kg/injection, schedule: Q01DX001 (ip), vehicle: saline with Tween-80.
[2] abbreviates: dose: 400.0 mg/kg/injection, schedule: Q01DX009 (ip), vehicle: saline with Tween-80.
Setting [3] is: dose: 100.0 mg/kg/injection, schedule: Q01DX001 (ip), vehicle: saline.
The mark [4] stands for this setting: dose: 200.0 mg/kg/injection, schedule: Q01DX001 (ip), vehicle: saline.
Setting [5] is: dose: 400.0 mg/kg/injection, schedule: Q01DX001 (ip), vehicle: saline.
Setting [6] is: dose: 100.0 mg/kg/injection, schedule: Q01DX009 (ip), vehicle: saline with Tween-80.
Setting [7] is: dose: 200.0 mg/kg/injection, schedule: Q01DX009 (ip), vehicle: saline with Tween-80.
The mark [8] stands for this setting: dose: 100.0 mg/kg/injection, schedule: Q04DX003 (ip), vehicle: Klucel (hydroxypropylcellulose) (HPC).
Where [9] appears, read: dose: 200.0 mg/kg/injection, schedule: Q04DX003 (ip), vehicle: Klucel (hydroxypropylcellulose) (HPC).
Where [10] appears, read: dose: 400.0 mg/kg/injection, schedule: Q04DX003 (ip), vehicle: Klucel (hydroxypropylcellulose) (HPC).
Where [11] appears, read: dose: 400.0 mg/kg/injection, schedule: Q01DX009 (ip), vehicle: Klucel (hydroxypropylcellulose) (HPC).
Where [12] appears, read: dose: 50.0 mg/kg/injection, schedule: Q01DX009 (ip), vehicle: Klucel (hydroxypropylcellulose) (HPC).
The mark [13] stands for this setting: dose: 100.0 mg/kg/injection, schedule: Q01DX009 (ip), vehicle: Klucel (hydroxypropylcellulose) (HPC).
Where [14] appears, read: dose: 200.0 mg/kg/injection, schedule: Q01DX009 (ip), vehicle: Klucel (hydroxypropylcellulose) (HPC).
The mark [15] stands for this setting: dose: 400.0 mg/kg/injection, schedule: Q04DX003 (ip), vehicle: saline.
Where [16] appears, read: dose: 50.0 mg/kg/injection, schedule: Q04DX003 (ip), vehicle: saline with Tween-80.

Molecules are shown by their SMILES. The list shows only some results of the screen, not a fair sample: it gathers tests that were run many times, whatever their T/C, doses with no T/C, and many T/C values between a quarter and a half above the control. Other doses and runs of a compound stand elsewhere. T/C is the treated group as % of the vehicle group. Some entries give survivors of the animals treated and no T/C: the source files T/C as zero there, which appears to mark a toxic dose or a test without result, not a measured value. Some doses without a T/C left all or most animals alive at the check, yet need not have been tolerated: the source hardly ever lists a survival T/C far under the control, and the zero likely stands for such cases as well. Counts of survivors are from the toxicity check (mostly the fifth day) where no day follows; animals may have died later. Schedules are NCI's codes, read here as Q, the interval in days (D) or hours (H), X, the number of doses. Some entries hold several experiments; their values stand side by side, smallest first. Some schedule codes hold Z or #, which are not explained here. For survival time, this PubChem deposit counts one and a half times the control or more as active, and values a quarter to a half above the control carry no call in these data; other NCI protocols may use other cut-offs. Some T/C values carry the count of animals alive at the toxicity check (mostly the fifth day); without a count, all were alive then.

For `O=C1NC(=O)/C(=C\c2ccc(OCc3ccccc3)c(OCc3ccccc3)c2)N1`, the survivor count under setting [1] was 5 of 6.
In the case of `C/C(=N\Nc1cccc(N)c1)c1ccccc1`, the survivor count (dose: 160.0 mg/kg/injection, schedule: Q04DX002 (ip), vehicle: saline with Tween-80) was 3 of 3 and the survivor count (dose: 400.0 mg/kg/injection, schedule: Q04DX002 (ip), vehicle: saline with Tween-80) is 3 of 3.
Turning to `CN1CCC23c4c5ccc(O)c4OC2C(=O)CCC3C1C5` (stereo not drawn), the survivor count is given as 2 of 6 (dose: 150.0 mg/kg/injection, schedule: Q01DX001 (ip), vehicle: saline) and 0 of 6 (dose: 300.0 mg/kg/injection, schedule: Q01DX001 (ip), vehicle: saline).
For the compound `COC(C#N)(Cc1ccccc1)Cc1ccccc1`, the survivor count (dose: 300.0 mg/kg/injection, schedule: Q01DX001 (ip), vehicle: other) is given as 0 of 6.
Take `CC1CCCC(CN=Cc2cc([N+](=O)[O-])ccc2O)[N-]1.CC1CCCC(CN=Cc2cc([N+](=O)[O-])ccc2O)[N-]1.[Ni+2]` (stereo not drawn): the survivor count under setting [2] is listed as 6 of 6.
Take `Cc1nnnn1C12CC3CC(CC(C3)C1)C2`: the survivor count was 1 of 6 under setting [3], 1 of 6 under setting [4] and 0 of 6 under setting [5].
As to `c1ccc([S+]([CH2][Hg][CH2][S+](c2ccccc2)c2ccccc2)c2ccccc2)cc1`, the survivor count is given as 0 of 6 (dose: 40.0 mg/kg/injection, schedule: Q01DX001 (ip), vehicle: saline); 0 of 6 (dose: 80.0 mg/kg/injection, schedule: Q01DX001 (ip), vehicle: saline); 0 of 6 under setting [3]; 0 of 6 under setting [4]; 0 of 6 under setting [5].
For `OC1CC2CCC(C1)N2CCCN1c2ccccc2Sc2ccc(Cl)cc21` (stereo not drawn), the T/C reads like this: under setting [6], 128 % of control; (dose: 200.0 mg/kg/injection, schedule: Q04DX003 (ip), vehicle: saline with Tween-80) 125 and 125 % of control [5 of 6 alive]. Besides, the survivor count runs as follows: under setting [6], 4 of 6; under setting [7], 0 of 6; (dose: 300.0 mg/kg/injection, schedule: Q04DX003 (ip), vehicle: saline with Tween-80) 1 of 6; under setting [2], 0 of 6.
In the case of `Nc1nc(-c2ccccc2)c(CCCCc2ccccc2)c(=O)[nH]1`, the survivor count was 6 of 6 (dose: 100.0 mg/kg/injection, schedule: Q01DX Z (ip), vehicle: carboxymethylcellulose (CMC)) and 6 of 6 (dose: 400.0 mg/kg/injection, schedule: Q01DX Z (ip), vehicle: carboxymethylcellulose (CMC)).
On to `CN(C)N=Nc1ccc(C(=N)N)cc1`, for which the survivor count is, setting by setting: (dose: 200.0 mg/kg/injection, schedule: Q01DX001 (ip), vehicle: acid diluted with saline) 0 of 6; (dose: 400.0 mg/kg/injection, schedule: Q01DX001 (ip), vehicle: acid diluted with saline) 0 of 6.
Consider `CN(C)C1CCC(Nc2nc(Nc3cc(Cl)cc(Cl)c3)nc3ccccc23)CC1` (stereo not drawn), for which the survivor count reads like this: under setting [1], 1 of 6; (dose: 400.0 mg/kg/injection, schedule: Q01DX001 (ip), vehicle: saline with Tween-80) 0 of 6.
As for `CC12CC3CC(C)(C1)CC(SC(=N)N)(C3)C2`, the survivor count is 0 of 3 (dose: 100.0 mg/kg/injection, schedule: Q04DX002 (ip), vehicle: Klucel (hydroxypropylcellulose) (HPC)); 0 of 3 (dose: 200.0 mg/kg/injection, schedule: Q04DX002 (ip), vehicle: Klucel (hydroxypropylcellulose) (HPC)); 0 of 3 (dose: 400.0 mg/kg/injection, schedule: Q04DX002 (ip), vehicle: Klucel (hydroxypropylcellulose) (HPC)).
As for `CC(C)(C)C1(C)CN(N=O)C(=O)O1` (stereo not drawn), the survivor count runs as follows: (dose: 50.0 mg/kg/injection, schedule: Q04DX003 (ip), vehicle: Klucel (hydroxypropylcellulose) (HPC)) 6 of 6; under setting [8], 0 of 6; under setting [9], 0 of 6; under setting [10], 0 of 6.
Consider `COc1ccc(OC)c(NC(=O)Nc2cc(Cl)ccc2C)c1`, for which the survivor count under setting [11] is given as 2 of 6.
Consider `O=C1NC(=O)C2(CCCCC2)N1`, for which the survivor count reads like this: under setting [12], 2 of 6; under setting [13], 0 of 6; under setting [8], 5 of 6 and 6 of 6; (dose: 100.0 mg/kg/injection, schedule: Q04DX003 (ip), vehicle: saline) 4 of 6; (dose: 115.0 mg/kg/injection, schedule: Q01DX009 (ip), vehicle: Klucel (hydroxypropylcellulose) (HPC)) 6 of 6; (dose: 170.0 mg/kg/injection, schedule: Q01DX009 (ip), vehicle: Klucel (hydroxypropylcellulose) (HPC)) 0 of 6. Also, the survivor count runs as follows: under setting [14], 0 of 6; under setting [9], 5 of 6; (dose: 200.0 mg/kg/injection, schedule: Q04DX003 (ip), vehicle: saline) 0 of 6; under setting [10], 0 of 6; under setting [15], 0 of 6.
As to `CC1CC(N2CSC(=S)N(C3CC(C)CC(C)(C)C3)C2)CC(C)(C)C1` (stereo not drawn), the survivor count under setting [12] is 6 of 6, the survivor count under setting [14] is 6 of 6 and the survivor count under setting [11] was 6 of 6.
Regarding `CCCCCCCCCCCCCCCCOc1ccc(S(=O)(=O)c2ccccc2)cc1[N+](=O)[O-]`, the survivor count was 6 of 6 (dose: 100.0 mg/kg/injection, schedule: Q01DX009 (ip), vehicle: saline sonified) and 6 of 6 (dose: 200.0 mg/kg/injection, schedule: Q01DX009 (ip), vehicle: saline sonified).
For `C[n+]1c2c(cc3ccccc31)CCC2`, the survivor count by setting is: under setting [6], 1 of 3; under setting [7], 0 of 3.
Regarding `C[n+]1ccn(Cc2ccc([N+](=O)[O-])cc2)c1`, the T/C under setting [16] was 146 % of control.
For the compound `COc1cc(C(=O)NNC(=O)C(=O)NNC(=O)c2cc(OC)c(OC)c(OC)c2)cc(OC)c1OC`, the survivor count (dose: 25.0 mg/kg/injection, schedule: Q01DX009 (ip), vehicle: Klucel (hydroxypropylcellulose) (HPC)) is recorded as 5 of 6; the survivor count under setting [13] was 0 of 6 and 1 of 6; the survivor count under setting [14] is 4 of 6; the survivor count under setting [11] is listed as 4 of 6.
For `CCCCOP(=O)(Cc1cc(C)cc(C)c1)OCCCC`, where the note is “dose: 400.0 mg/kg/injection, schedule: Q04DX003 (ip), vehicle: saline with Tween-80”, the survivor count is listed as 1 of 6.
For `CN(C)C=Nc1cc2c3c(c1)CCCN3CCC2`, the survivor count is 2 of 6 (dose: 50.0 mg/kg/injection, schedule: Q01DX001 (ip), vehicle: saline); 0 of 6 under setting [3]; 1 of 6 under setting [4]; 1 of 6 under setting [5].
Regarding `O=C1C=CC(=O)N1c1ccc(F)cc1`, the survivor count was 1 of 6 under setting [16] and 0 of 6 (dose: 100.0 mg/kg/injection, schedule: Q04DX003 (ip), vehicle: saline with Tween-80).
As for `O=c1cc2oc3c(O)c(O)ccc3c3c4ccccc4c(=O)c(c1)c23`, the survivor count is listed as 3 of 6 (dose: 100.0 mg/kg/injection, schedule: Q01DX009 (ip), vehicle: saline); 0 of 6 (dose: 200.0 mg/kg/injection, schedule: Q01DX009 (ip), vehicle: saline); 1 of 6 under setting [15].

The values are drawn from PubChem BioAssay AID248 (DTP/NCI, 2004).
